From article PMC6712659 come the findings set out here.

Results are given in words; binding and its absence hold for the method and conditions named. Binding seen in cells or lysates may run through a third protein. These calls come from enrichment with a bait or labelling near it, and not all partners need be listed. Where a sequence is shown, tags or fusion partners need not be part of it.

The assay concerns the target T1, soluble recombinant CLEC10A (extracellular part of human C-type glycoreceptor CLEC10A, myc-tagged) (human) (UniProt Q8IUN9).
T1 sequence: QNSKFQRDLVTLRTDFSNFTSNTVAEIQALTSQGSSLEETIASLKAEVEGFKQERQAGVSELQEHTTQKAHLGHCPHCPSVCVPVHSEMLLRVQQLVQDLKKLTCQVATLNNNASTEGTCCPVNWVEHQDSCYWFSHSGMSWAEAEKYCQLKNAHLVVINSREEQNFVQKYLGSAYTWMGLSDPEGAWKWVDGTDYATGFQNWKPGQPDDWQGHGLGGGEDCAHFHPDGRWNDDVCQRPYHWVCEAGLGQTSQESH
Kind of assay: affinity purification with mass spectrometry; myc-tagged CLEC10A held on anti c-myc agarose beads; 300 ug total protein lysate of two CLEC10A-positive breast tumors; binding buffer TBS, 0.1% Triton-X100, 1 mM CaCl2, 2 mM MgCl2; eluted with TBS, 10 mM EDTA (pH 7.4); SDS-PAGE, silver staining, gel slices to mass spectrometry; only the target purified.
Consider MUC16 (from UniProt Q8WXI7 1-14507), for which the binding entry is reported as “binds”.
As for fibulin, the entry is “binds”.
The result for thrombospondin reads “binds”.
